According to patent US20220153839A1:
Results are given in words; binding and its absence hold for the method and conditions named. Some binding calls cover weakened binding; strength is not graded here. Values belong to the binder of their own block, whether it stands above or below them.

Protein sequences, listed by entry. Tags and fused reporters are not part of them. Lines headed by an entry give the natural chain unless they say otherwise; changes in a name come on top. Residues count along the entry.
UniProt Q01973: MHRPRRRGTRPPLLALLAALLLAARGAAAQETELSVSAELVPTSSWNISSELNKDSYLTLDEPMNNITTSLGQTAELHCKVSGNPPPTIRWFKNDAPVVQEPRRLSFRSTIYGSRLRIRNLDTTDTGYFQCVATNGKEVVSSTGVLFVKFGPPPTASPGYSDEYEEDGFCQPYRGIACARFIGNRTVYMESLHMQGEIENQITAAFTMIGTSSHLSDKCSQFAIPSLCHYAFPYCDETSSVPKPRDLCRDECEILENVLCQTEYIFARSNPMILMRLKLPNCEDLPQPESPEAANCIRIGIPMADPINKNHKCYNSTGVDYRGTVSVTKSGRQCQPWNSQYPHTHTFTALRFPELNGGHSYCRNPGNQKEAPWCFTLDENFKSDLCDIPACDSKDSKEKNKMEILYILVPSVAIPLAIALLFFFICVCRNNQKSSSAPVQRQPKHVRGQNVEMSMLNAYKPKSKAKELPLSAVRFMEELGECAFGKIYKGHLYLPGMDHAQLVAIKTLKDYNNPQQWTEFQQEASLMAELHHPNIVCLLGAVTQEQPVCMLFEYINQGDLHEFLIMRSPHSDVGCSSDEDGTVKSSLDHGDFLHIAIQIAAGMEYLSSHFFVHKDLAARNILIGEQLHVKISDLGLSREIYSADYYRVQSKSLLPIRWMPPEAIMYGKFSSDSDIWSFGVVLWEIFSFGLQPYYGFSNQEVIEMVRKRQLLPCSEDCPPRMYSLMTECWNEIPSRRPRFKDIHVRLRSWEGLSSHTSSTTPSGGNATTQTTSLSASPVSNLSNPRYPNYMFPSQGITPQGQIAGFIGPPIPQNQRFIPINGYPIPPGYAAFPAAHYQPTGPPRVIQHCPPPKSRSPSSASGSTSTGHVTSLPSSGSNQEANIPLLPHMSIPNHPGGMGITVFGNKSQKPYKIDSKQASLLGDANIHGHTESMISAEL
human ROR1, full length, on cells: residues 30-937 of Q01973
purified extracellular domain of hROR1 (Western blot, FIG. 9 lane 3): residues 30-406 of Q01973
Ig + Fr: residues 42-299 of Q01973

Key:
Ig + Fr (human) = Ig + Fr (human) (UniProt Q01973); test: ELISA on directly coated hFc fusion proteins of hROR1 domains; Fab detected with anti-His-HRP; A405
[1] = molecular target: human ROR1, full length, on cells (human) (UniProt Q01973); test: flow cytometry, chimeric IgG1 on MDA-MB-231 cells
[2] = molecular target: human ROR1, full length, on cells (human) (UniProt Q01973); test: cell microarray (Retrogenix): fixed HEK293 cells over-expressing the protein, spotted in duplicate; AlexaFluor647 anti-human IgG Fc detection
[3] = molecular target: human ROR1, full length, on cells (human) (UniProt Q01973); test: flow cytometry; IgG1 100 ng/100 µL; APC goat anti-human Fcγ
[4] = molecular target: human ROR1, full length, on cells (human) (UniProt Q01973); test: Western blot of denatured, reduced samples; IgG1 2 µg/mL; anti-human Fcγ-HRP
[5] = molecular target: purified extracellular domain of hROR1 (Western blot, FIG. 9 lane 3) (human) (UniProt Q01973); test: as above
[6] = molecular target: human ROR1, full length, on cells (human) (UniProt Q01973); test: Western blot, denatured and reduced protein, IgG1 at 2 µg/mL
[7] = molecular target: purified extracellular domain of hROR1 (Western blot, FIG. 9 lane 3) (human) (UniProt Q01973); test: Western blot, purified extracellular domain of hROR1
[8] = molecular target: human ROR1, full length, on cells (human) (UniProt Q01973); test: Western blot, lysate of K562 cells expressing full length hROR1
[9] = molecular target: human ROR1, full length, on cells (human) (UniProt Q01973); test: Retrogenix cell microarray, fixed HEK293 cells expressing the protein, anti-human IgG Fc detection
[10] = molecular target: human ROR1, full length, on cells (human) (UniProt Q01973); test: Retrogenix cell microarray, IgG1 at 2 µg/mL

B1: ERR1-301 chimeric rabbit/human Fab (Fab, V domains shown)
VH: QEQLEESGGGLVTPGGSLTLTCTASGFTISTYHMSWVRQAPGKGLEWIGSIYAGSGSTYYASWVNGRFTISSNTTQNTVSLQMNSLTVADTATYFCARDHPSYGMDLWGPGTLVTVSS
VL: SYELTQLPSVSVSLGQTARITCGGNSIGSKAVNWYQQKPGLAPGLLIYDDDERPSGVPDRFSASNSGDTATLTISGAQAEDEADYYCQLWDSSAVAYVFGGGTQLTVTG
binding (Ig + Fr (human)): binds

B2: ERR1-TOP15 chimeric rabbit/human Fab (Fab, V domains shown)
VH: QEQLVESGGRLVTPGGSLTLTCAASGFSPSSYWMSWVRQAPGKGLEWIGAIYVDSGSAYYASWAKSRFTISKTSSTTVDLKMTSLTTEDTAIYFCARDGWGSDVWGPGTLVTISS
VL: SYELTQLPSVSVSLGQTARITCGGNSIGSKAVHWYQQKPGLAPGLLIYDDDERPSGVPDRFSGSNSGDTATLTISGAQAGDEADYYCQLWDSSAGAYVFGGGTQLTVTG
binding (Ig + Fr (human)): binds

B4: ERR1-403 chimeric rabbit/human Fab (Fab, V domains shown)
VH: QEQLKESGRGLVQPGGSLKLSCKASGFDFSGWYMTWVRQAPGKGLEWIGTIGTTKGRTYYASWVNGRFTISSNAQNTVDLQMNSLTAADRATYFCVRGSDYFDLWGPGTLVTISS
VL: SYELTQLPSVSVSLGQTARITCGGNSIGSKAVNWYQQKPGLAPGLLIYDDDERPSGVPARFSGSNSGDTATLTISGAQAGDEADYYCQLWDSSAGAYVFGGGTQLTVTG
binding (Ig + Fr (human)): binds

B6: ERR1-316 chimeric rabbit/human Fab (Fab, V domains shown)
VH: QEQLEESGGRLVTPGTPLTLTCTASGFFLSSYYVSWVRQAPGKGLEWIGAIGTGGSAYYASWAKSRSTITRNTNLSTVTLKMTSLTAADTATYFCARDHPNYGMDLWGPGTLVTVSS
VL: SYELTQLPSVSVSLGQTARITCGGNSIGSKAVNWYQQKPGLAPGLLIYDDDERPSGVPDRFSGSNSGDTATLTISGAQAGDEADYYCQLWDSSTGAYAFGGGTQLTVTG
binding (Ig + Fr (human)): binds

B9: ERR1-TOP22 chimeric rabbit/human Fab (Fab, V domains shown)
VH: QSLEESGGRLVTPGTPLTLTCTVSGFSLSSYYMSWVRQAPGKGLEWIGTISSSGSTYYASWVKGRFTISKTSTTVDLKMTSLTTEDTATYFCARDLDYDMDLWGPGTLVTVSS
VL: SYELTQLPSVSVSLGQTARITCGGNSIGSKAVHWYQQKPGLAPGLLIYNDDERPSGVPDRFSGSNSGDTATLTISGAQAGDEADYYCQLWDNNAAVFGGGTQLTVTG
binding (Ig + Fr (human)): binds

B10: ERR1-409 chimeric rabbit/human Fab (Fab, V domains shown)
VH: QEQLVESGGRLVTPGGSLTLTCTASGFSLSSYYMGWVRQAPGKGLEWIGTIYGGSGSTWYASWVKGRFTISKTSTAVDLKITSLTTEDTATYFCARSYPGWTTEPYFDIWGPGTLVTVSS
VL: QFVLTQPQSVSGSLGQTVSISCNRDSGNIEDYYVHWYQQHPGKAPTTVIYNDDQRPSGVPDRFSGSIDSTSNSASLTITGLLAEDEADYYCLSSDSSAYVFGGGTQLTVTG
binding (Ig + Fr (human)): binds

Now from value to binder:

binding (Ig + Fr (human)): binds
B3: ERR1-TOP43 chimeric rabbit/human Fab (Fab, V domains shown)
VH: QSLEESGGRLVTPGTPLTLTCTVSGFSLSSYWMSWVRQAPGKGLEWIGAIYGSGNTYYASWAKGRFTISKTSTTVDLKITSPTTEDTATYFCARDVHSTATDLWGPGTLVTISS
VL: SYELTQLPSVSVSLGQTARITCGGNNIGSKAVNWYQQKPGLAPGLLIYNDDERPSGVPDRFSGSNSGDTATLTISGAQAGDEADYYCQLWDSSAGAYVFGGGTQLTVTG

binding (Ig + Fr (human)): binds
B5: ERR1-TOP54 chimeric rabbit/human Fab (Fab, V domains shown)
VH: QSLEESGGRLVTPGTPLTLTCTASGFSLSDYYMSWVRQAPGEGLEWIGTIYGGSGNTWYATWAKGRFTISKTSTTVDLKITSPTTEDTATYFCARDFGLSTGGLWGPGTLVTISS
VL: SYELTQLPSVSVSLGQTARITCGGNSIGSKAVNWYQQKPGLAPGLLIYDDDERPSGVPDRFSGSNSGDTATLTISGAQAGDEADYYCQLWDSSARAFVFGGGTQLTVTG

binding [1]: binds
binding [2]: binds
binding [3]: binds
binding [4]: binds
binding [5]: binds
binding [6]: binds
binding [7]: binds
binding [8]: binds
binding [9]: binds
binding [10]: binds
B7: XBR1-402 chimeric rabbit/human IgG1 (antibody, V domains shown)
VH: QEQQKESGGGLFKPTDTLTLTCTASGFDISSYYMSWVRQAPGNGLEWIGAIGISGNAYYASWAKSRSTITRNTNLNTVTLKMTSLTAADTATYFCARDHPTYGMDLWGPGTLVTVSS
VL: SYELTQLPSVSVSLGQTARITCEGNNIGSKAVHWYQQKPGLAPGLLIYDDDERPSGVPDRFSGSNSGDTATLTISGAQAGDEADYYCQVWDSSAYVFGGGTQLTVTG

binding (Ig + Fr (human)): binds
B8: XBR1-402 chimeric rabbit/human Fab (Fab, V domains shown)
VH: QEQQKESGGGLFKPTDTLTLTCTASGFDISSYYMSWVRQAPGNGLEWIGAIGISGNAYYASWAKSRSTITRNTNLNTVTLKMTSLTAADTATYFCARDHPTYGMDLWGPGTLVTVSS
VL: SYELTQLPSVSVSLGQTARITCEGNNIGSKAVHWYQQKPGLAPGLLIYDDDERPSGVPDRFSGSNSGDTATLTISGAQAGDEADYYCQVWDSSAYVFGGGTQLTVTG
